# According to PubChem BioAssay AID1487 (National Center for Advancing Translational Sciences (NCATS), 2009):
# About 25 (0.01%) of roughly 200,000 compounds were called active. This list was built around the results that the source calls inconclusive (neither active nor inactive); the mix of calls is not that of the screen. Calls come from the whole dose curve; as a rule, active = well fitted inhibition curve with a large enough effect in the signal ratio, with a control signal flat (not every such curve was filed as active); inconclusive = small, poorly fitted or top-dose-only effect, or effect the other way, or a change in a side signal; inactive = flat fitted curve, though single readings scatter; the % refers to the signal ratio. Potencies beside an inconclusive call are fits to weak or partial responses and may not hold up.
# Assay: qHTS Assay for Modulators of Lamin A Splicing
# Details: HeLa LMNA splicing GFP/RFP minigene ratio, 48 h
# Procedure, shortened: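 S3 HeLa stable clones carrying a lamin A-EGFP splicing minigene plus DsRed2 were seeded at 600 cells/well in Opti-MEM with 2% FBS, pin-dosed and incubated 48 h at 37°C. Acumen cytometry (488 nm) gave the GFP/RFP total-intensity ratio.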
# [1] = ratio change, negative = inhibition: at 46.1 µM (top of the series) unless noted
# % is set by controls: 0 for no effect and ±100 for the full control effect; potency is the fitted concentration of half-maximal effect.
structure (smiles),measurement,setting,value
CCOc1ccccc1C(=O)N1CCN(C(c2ccccc2)c2ccccc2)CC1,"ratio change, negative = inhibition",[1],inconclusive: -28%
CC(C)(C)OC(=O)NNC(=S)NC1CCCCC1,"ratio change, negative = inhibition",[1],inconclusive: -27.8% [at 46 µM]
O=C(Nc1ccc([N+](=O)[O-])cc1)Nc1ccc(OC(F)F)c(Cl)c1,Potency,[1],"inconclusive: 12.6 µM [fluorescent, partial curve]"
COCCSc1nnc(NC(=O)c2ccc3c(c2)OCO3)s1,"ratio change, negative = inhibition",[1],inconclusive: -7.23% [at 46 µM]
CCC(=O)/C=C1/Sc2ccc(OC)cc2N1CCO,"ratio change, negative = inhibition",[1],inconclusive: 46.7% [at 46 µM]
COc1ccc2nc(NC(C)=O)sc2c1,"ratio change, negative = inhibition",[1],inconclusive: 58.4%
O=C(CCCn1c(=O)c2cccn2c2ccccc21)NCCc1ccc(Cl)cc1,"ratio change, negative = inhibition",[1],inconclusive: -19.1% [at 46 µM]
CSc1ncccc1C(=O)Nc1nc2ccc(S(C)(=O)=O)cc2s1,"ratio change, negative = inhibition",[1],inconclusive: 8.85% [at 46 µM]
O=C(/C=C\NCC(=O)c1ccccc1)c1ccc(F)cc1,"ratio change, negative = inhibition",[1],inactive
COc1ccc(-c2csc(NC(=O)c3ccc(OCC(=O)N4CCOCC4)c(OC)c3)n2)cc1OC,"ratio change, negative = inhibition",[1],inconclusive: 9.38%
CCS(=O)(=O)N1Cc2ccccc2CC1C(=O)Nc1nnc(SCc2ccc(F)cc2)s1 (stereo not drawn),"ratio change, negative = inhibition",[1],inconclusive: -25.6%
O=C(CSc1nnc(COc2ccc(Cl)cc2)o1)N1c2ccccc2CCc2ccccc21,"ratio change, negative = inhibition",[1],inconclusive: -32.8%
CCOC(=O)/C(C#N)=C/c1cc2ccccc2nc1N1CCCCC1,"ratio change, negative = inhibition",[1],inactive
Cn1c(-c2cccc3ccccc23)n[nH]c1=S,"ratio change, negative = inhibition",[1],inconclusive: -19.9%
O=[N+]([O-])c1ccc(NC(=S)N2CCc3ccccc3C2)cc1,Potency,[1],"inconclusive: 22.4 µM [fluorescent, single point]"
O=C(NCc1ccccc1F)c1ccc(CSc2nc3cccnc3n2Cc2ccccc2)cc1,"ratio change, negative = inhibition",[1],inconclusive: -14.9% [at 46 µM]
C/C(=N\NS(=O)(=O)c1ccc(C)cc1)c1ccc(Br)s1,"ratio change, negative = inhibition",[1],inactive
CC(NC(=O)OC(C)(C)C)C(=O)Oc1cc2oc(=O)cc(-c3ccccc3)c2cc1Cl (stereo not drawn),"ratio change, negative = inhibition",[1],inactive
N#Cc1nc(-c2ccc(COc3ccccc3)o2)oc1N1CCCCC1,Potency,[1],"inconclusive: 15.8 µM [activator, partial curve, poor fit]"
NC(=O)COC(=O)c1oc2ccccc2c1CSc1ccc(Cl)cc1,"ratio change, negative = inhibition",[1],inactive
CC(C(=O)OCC(=O)Nc1cccc(S(=O)(=O)N2CCOCC2)c1)N1C(=O)c2ccccc2C1=O (stereo not drawn),Potency,[1],"inconclusive: 1.12 µM [rising, single point]"
Cc1ccc(SCCNC(=S)Nc2ccc(C)cc2C)cc1,"ratio change, negative = inhibition",[1],inconclusive: -50.4%
O=c1c(O)c(-c2cc(O)c(O)c(O)c2)oc2cc(O)cc(O)c12,"ratio change, negative = inhibition",at 46.1 µM (top of the series),inactive: -10.3%
same,"ratio change, negative = inhibition",[1],inconclusive: -57.6%
C/C(=N\NC(=S)NCc1ccccc1)c1ccc(Cl)cc1,Potency,[1],"inconclusive: 35.5 µM [fluorescent, single point]"
CSc1nc2ccc(NC(=O)C3CC(=O)N(Cc4ccccc4)C3)cc2s1 (stereo not drawn),"ratio change, negative = inhibition",[1],inconclusive: 4.88%
O=C(CSCc1ccc(F)cc1)N1CCc2c([nH]c3ccccc23)C1c1ccc(Cl)cc1 (stereo not drawn),"ratio change, negative = inhibition",[1],inactive
CC(=O)c1c(C(C)=O)c(C)n(-c2nc(-c3ccc(Br)cc3)c(C)s2)c1C,"ratio change, negative = inhibition",[1],inconclusive: 7.14%
CCCCc1ccc(NC(=O)CC(C)C)cc1,"ratio change, negative = inhibition",[1],inactive
CC(C)N(C(=O)COC(=O)c1cccc(C(=O)OCC(=O)N(C(C)C)C(C)C)n1)C(C)C,"ratio change, negative = inhibition",[1],inconclusive: -2.12% [at 46 µM]
CCn1nc(C)c(NC(=O)c2cnn3c(C(F)F)cc(-c4ccccc4)nc23)c1C,"ratio change, negative = inhibition",[1],inconclusive: 17% [at 46 µM]
O=c1c2ccccc2nnn1Cc1cccc2ccccc12,"ratio change, negative = inhibition",[1],inconclusive: -2.35% [at 46 µM]
O=c1c(O)c(-c2cccs2)oc2ccc(Cl)cc12,"ratio change, negative = inhibition",[1],inconclusive: -41.9%
C=CCn1c(SCC(=O)c2cc(C)n(Cc3cccs3)c2C)nnc1-c1ccncc1,"ratio change, negative = inhibition",[1],inactive
CC(C)CCNC(=O)C12CN(Cc3ccccc3)CC1C(c1ccc([N+](=O)[O-])cc1)=NO2 (stereo not drawn),"ratio change, negative = inhibition",[1],inactive
COc1ccc(N2CCCn3c2nc2c3c(=O)n(Cc3ccccc3)c(=O)n2C)c(OC)c1,"ratio change, negative = inhibition",[1],inconclusive: 33.9% [at 46 µM]
COC(=O)C1=C(N)OC2=C(C(=O)CC(C)(C)C2)C1c1cccs1 (stereo not drawn),"ratio change, negative = inhibition",[1],inactive
CC1=CC(c2ccc(Cl)cc2)n2nc(N3C(=O)CCC3=O)nc2N1 (stereo not drawn),"ratio change, negative = inhibition",[1],inactive
O=C1CN(C(=O)c2cc(Br)c(Br)s2)c2ccccc2N1,"ratio change, negative = inhibition",[1],inconclusive: -40.9%
Cc1ccc2[nH]c(=O)c(CN(CC3CCCO3)S(=O)(=O)c3cccc4nsnc34)cc2c1 (stereo not drawn),"ratio change, negative = inhibition",[1],inactive
O=C(Cn1c(-c2cscn2)nc2ccccc21)Nc1ccc2ccccc2c1,"ratio change, negative = inhibition",[1],inconclusive: -28.4%
CC(=O)Nc1ccc(Nc2ncnc3c2c(-c2ccccc2)cn3-c2ccccc2)cc1,"ratio change, negative = inhibition",[1],inconclusive: -20.8% [at 46 µM]
Cc1cc(N2CCN(c3ccccc3Cl)CC2)n2cc(-c3ccccc3)nc2n1,"ratio change, negative = inhibition",[1],inconclusive: -16.9%
CCOC(=O)c1ccc(-n2c(CN3CCN(CC)CC3)nc3ccc([N+](=O)[O-])cc3c2=O)cc1,"ratio change, negative = inhibition",[1],inconclusive: 9.26% [at 9.22 µM]
CC(C)c1ccc(S(=O)(=O)N2CCCCC2)cc1,"ratio change, negative = inhibition",[1],inconclusive: 24.2% [at 9.22 µM]
Cc1ccc(NC(=O)CN2C(=O)S/C(=C\c3cc(C)n(-c4ccc(C(=O)O)cc4)c3C)C2=O)cc1,"ratio change, negative = inhibition",[1],inconclusive: -11.8% [at 46 µM]
CC(C)CCC(O)(CCC(C)C)C(=O)NNc1ccccc1,"ratio change, negative = inhibition",[1],inconclusive: -0.251%
CC(Oc1ccccc1)C(=O)NC1=NCCS1 (stereo not drawn),"ratio change, negative = inhibition",[1],inactive
Nc1nc(SCC(=O)Nc2ccccc2-c2ccccc2)n[nH]1,"ratio change, negative = inhibition",[1],inactive
O=C(O)c1ccccc1OCCOc1ccccc1,"ratio change, negative = inhibition",[1],inconclusive: -7.34%
COc1ccc(C(CC(=O)O)NC(=O)COc2cc(C)ccc2C)cc1OC (stereo not drawn),"ratio change, negative = inhibition",[1],inactive: 7.97% [at 9.22 µM]
CCOC(=O)c1noc2nc(C)n(CC(=O)Nc3cc(Cl)ccc3OC)c(=O)c12,"ratio change, negative = inhibition",[1],inconclusive: -3.41% [at 46 µM]
O=C1NC(c2ccc(-c3ccccc3[N+](=O)[O-])o2)C(C(=O)c2ccc(F)cc2)C(O)(C(F)(F)F)N1 (stereo not drawn),"ratio change, negative = inhibition",[1],inconclusive: -10.7%
CCOC(=O)c1ccc(NC(=S)N(CCN(C)C)Cc2cccs2)cc1,Potency,[1],"inconclusive: 11.2 µM [inhibitor, partial curve]"
O=C(N=C1c2ccccc2CN1c1ccccc1)c1cccc([N+](=O)[O-])c1,"ratio change, negative = inhibition",[1],inactive
COC(=O)/C=C1/N/C(=N\c2nc(C)cc(C)n2)N(c2cccc(C)c2)C1=O,Potency,[1],"inconclusive: 35.5 µM [fluorescent, single point]"
Cc1ccc(S(=O)(=O)N(C)C)cc1NC(=O)COC(=O)c1n[nH]c(=O)c2ccccc12,"ratio change, negative = inhibition",[1],inconclusive: -32.1% [at 46 µM]
S=c1[nH]c2cc(Cl)ccc2s1,"ratio change, negative = inhibition",[1],inactive
NC(=O)CSc1nnc2n(-c3ccccc3)c(=O)c3c4c(sc3n12)CCCCC4,"ratio change, negative = inhibition",[1],inactive
Cn1c(=O)c2c(nc(NC3CCCCC3)n2CC(O)COc2ccccc2)n(C)c1=O (stereo not drawn),"ratio change, negative = inhibition",[1],inconclusive: 9.26%
NC(=O)C1(N2CCCCC2)CCN(C(=O)CCCn2c(=O)[nH]c3ccsc3c2=O)CC1,"ratio change, negative = inhibition",[1],inactive
O=C(Cn1c(=O)n(Cc2ccco2)c(=O)c2c3c(sc21)CCCCC3)Nc1ccccc1,Potency,[1],"inconclusive: 28.2 µM [activator, partial curve]"
CC1(C)CC(=O)C2=C(C1)OC(N)=C(C#N)C2c1ccccc1 (stereo not drawn),"ratio change, negative = inhibition",[1],inactive
COc1ccc(C(=O)Nc2ccc3[nH]c(-c4cccc(OC)c4)cc(=O)c3c2)cc1,"ratio change, negative = inhibition",[1],inconclusive: -16.8%
CCSC1=N/C(=C\c2ccc3c(c2)OCO3)C(=O)S1,"ratio change, negative = inhibition",[1],inactive
COc1ccc2cc(CCC(C)=O)ccc2c1,"ratio change, negative = inhibition",[1],inconclusive: 30.4% [at 46 µM]
CC(=C/c1ccccc1)/C=N/n1c(-c2ccco2)n[nH]c1=S,"ratio change, negative = inhibition",[1],inconclusive: -0.634%
Cc1cc(C)cc(-n2cnc3cc(C(=O)NCCc4ccccc4)ccc32)c1,"ratio change, negative = inhibition",[1],inconclusive: 11.4% [at 46 µM]
CCOC(=O)C1CCN(C(=O)c2oc3ccc(S(=O)(=O)N4CCCCCC4)cc3c2C)CC1,"ratio change, negative = inhibition",[1],inconclusive: -29.3%
Cc1ccccc1N=C1SCC(=O)N1Cc1ccccc1,"ratio change, negative = inhibition",[1],inconclusive: -4.87%
O=C(Nc1ccc2nsnc2c1)N1CCCCCC1,"ratio change, negative = inhibition",[1],inactive
CC(=O)NCCNc1nc(-c2cccc(NS(C)(=O)=O)c2)nc2ccccc12,"ratio change, negative = inhibition",[1],inactive
Cc1oc(-c2ccc3c(c2)OCCO3)cc1C(=O)NCC(=O)O,"ratio change, negative = inhibition",[1],inactive
COc1cc2oc(-c3ccc(O)cc3)cc(=O)c2c(OC)c1O,"ratio change, negative = inhibition",[1],inconclusive: -26.1% [at 46 µM]
C[C@@H](O)C1NC(=O)[C@H](CCCCN)NC(=O)c2cc([N+](=O)[O-])cc(I)c2NCCC[C@@H](C(N)=O)NC1=O (stereo partly drawn),"ratio change, negative = inhibition",[1],inconclusive: 5.05%
CCc1ccccc1OCCCCN1CCCC1,"ratio change, negative = inhibition",[1],inactive
O=C(NCCc1ccccc1)C1CCC(CNc2c(N3CCCCC3)c(=O)c2=O)CC1 (stereo not drawn),"ratio change, negative = inhibition",[1],inconclusive: -7.8%
C=CCn1c(SCC(=O)Nc2sc3c(c2C#N)CCC3)nnc1C1COc2ccccc2O1 (stereo not drawn),"ratio change, negative = inhibition",[1],inactive
CCOc1ccc(CN2CCN(C(=O)c3cccc(F)c3)CC2)cc1,Potency,[1],"inconclusive: 22.4 µM [fluorescent, single point]"
CCOC(=O)c1c(NC(=O)CSc2c[nH]c3ccccc23)sc2c1CCCC2,"ratio change, negative = inhibition",[1],inconclusive: -55.6%
O=C(Nc1cccc(C2OCCCO2)c1)c1cccs1,"ratio change, negative = inhibition",[1],inconclusive: 0.595%
O=C(C1=C(O)C(=O)N(c2ncccn2)C1c1ccc(Cl)c(Cl)c1)c1ccco1 (stereo not drawn),"ratio change, negative = inhibition",[1],inactive

# For convenience, some entries already given:
structure (smiles),measurement,setting,value
CC(C)CCC(O)(CCC(C)C)C(=O)NNc1ccccc1,"ratio change, negative = inhibition",[1],inconclusive: -0.251%
CC(Oc1ccccc1)C(=O)NC1=NCCS1 (stereo not drawn),"ratio change, negative = inhibition",[1],inactive
Nc1nc(SCC(=O)Nc2ccccc2-c2ccccc2)n[nH]1,"ratio change, negative = inhibition",[1],inactive
O=C(O)c1ccccc1OCCOc1ccccc1,"ratio change, negative = inhibition",[1],inconclusive: -7.34%
